Measurements from patent US20190367871A1, “EMBRYONIC STEM CELL MEDIA AND CULTURE” (YISSUM RESEARCH DEVELOPMENT COMPANY OF THE HEBREW …, priority 2018, published 2019).
For at least one compound, name, drawing or mass did not settle the structure.

What was measured:
Assay type in all cases: cell-based, human
[1] = system: hESCs; assay: Cell-cycle profile by PI staining and flow cytometry; conditions: two days of rapamycin treatment
Protocol: PI staining was performed as described in Sagi, I., Egli, D. & Benvenisty, N. Identification and propagation of haploid human pluripotent stem cells. Nat. Protoc. 11, 2274-2286 (2016). Briefly, hESCs were trypsinized with TrypLE Select and fixed with cold methanol (4° C.). Fixed cells were treated with 200 μg ml^−1 RNase A (Sigma) for 30 min and stained with 50 μg ml^−1 PI for 5 min. Stained cells were filtered through a 70 μm cell strainer and analysed in BD FACSAria III for their cell-cycle profile.

[2] = system: fibroblasts; assay: RNA sequencing transcriptome analysis of rapamycin-treated fibroblasts
[3] = system: hESCs; assay: TRA-1-60 immunocytochemistry (flow cytometry of TRA-1-60-positive pluripotent cells); conditions: four days of rapamycin treatment
Protocol: hESCs were trypsinized with TrypLE Select. Cells were collected in cold PBS containing 10% KSR, centrifuged at 300 g for 5 min and resuspended in 200 μl PBS containing 10% KSR. PE-conjugated mouse anti-human TRA-1-60 antibody (1:40, BD Biosciences) was then incubated with the cells for 30 min at 4° C. Cells were washed with PBS containing 10% KSR twice, centrifuged at 300 g at 4° C. and resuspended in PBS with 10% KSR. Immunolabelled cells were filtered through a 70 μm cell strainer and analysed in BD FACSAria III for the proportion of TRA-1-60-positive cells.

[4] = system: hESCs; assay: Apoptosis assay (Annexin V / PI flow cytometry); conditions: two days of rapamycin treatment vs untreated (CSES9)
Excerpt: hESCs were trypsinized gently with TrypLE Select. Apoptotic cells were labelled with Annexin V and propidium iodide (PI) using the MEBCYTO Apoptosis Kit according to the manufacturer's instructions (MBL). Labelled cells were filtered through a 70 μm cell strainer and analysed in BD FACSAria III for the proportion of annexin V-positive cells.

[5] = system: hESCs; assay: RNA sequencing transcriptome analysis of rapamycin-treated hESCs
[6] = two days of rapamycin treatment

## CO[C@H]1C[C@@H]2CC[C@@H](C)[C@@](O)(O2)C(=O)C(=O)N2CCCC[C@H]2C(=O)O[C@H]([C@H](C)C[C@@H]2CC[C@@H](O)[C@H](OC)C2)CC(=O)[C@H](C)/C=C(\C)[C@@H](O)[C@@H](OC)C(=O)[C@H](C)C[C@H](C)/C=C/C=C/C=C/1C [rapamycin]
[1]
  percentage of hESCs in G1 phase: increasing the percentage
  percentage of hESCs in G2/M phases: decreasing the percentage
[2]; rapamycin-treated vs untreated
  levels of TP53: did not increase
[2]; [6]
  downregulation of growth- or apoptosis-related pathway genes: did not significantly downregulate
  downregulation of lipid metabolism genes: downregulated genes related to lipid metabolism
  expression of CCND1 and CCND2: did not downregulate
[3]
  fraction of hESCs positive for TRA-1-60: modest decrease
[4]
  percentage of apoptotic hESCs: increased the percentage of apoptotic hESCs
[5]; rapamycin-treated vs untreated
  levels of TP53: increase in the levels of TP53
[5]; [6]
  downregulated genes/pathways (RAS/PI3K-AKT/MAPK, P53 signaling, amino acid biosynthesis): downregulated genes associated with several growth- or apoptosis-related pathways
  expression of G1-S transition factors CCND1 and CCND2: decrease in expression
